Assay results published in PubChem BioAssay AID493014 (National Center for Advancing Translational Sciences (NCATS), 2011).
Some of the results follow. The main result of the screen is listed elsewhere. These columns were measured beside it and carry no call. The list favours compounds with an active or inconclusive main result. The note in brackets gives the kind of curve behind each potency; many fits are weak.

Experiment: qHTS Assay to Find Inhibitors of Chronic Active B-Cell Receptor Signaling
Settings: ABC-DLBCL IkBa-CBG/CBR reporter, luminescence ratio (green luciferase fused to IkBa over red control in TMD8 lymphoma cells), 4 h
In short: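 TMD8 human ABC-DLBCL cells with doxycycline-inducible IκBα–green luciferase fusion and unfused red luciferase, in 0.5% FBS medium; compounds up to 46 uM, 4 h at 37C. Green/red luminescence ratio, filter-overlap corrected, fitted to concentration-response curves.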

[1] = measured here: CBR red luminescence, cell number
[2] = measured here: IkBa-CBG green luminescence

Row | Structure (SMILES) | AC50 [1] | AC50 [2]
1 | Cc1ccc(CSCC(=O)N/N=C/c2cccc(OC3CSC3)c2)cc1 | 3.26 µM [rising, full curve, poor fit] | 
2 | C/C(=N\NC(=O)c1cccc(N/N=C(\C)c2ccncc2)c1)c1ccncc1 | 11.2 µM [falling, partial curve] | 
3 | COc1cc([C@H]2c3[nH]c4ccccc4c3C[C@H]3C(=O)N4[C@@H](c5cc(OC)c(OC)c(OC)c5)c5[nH]c6ccccc6c5C[C@H]4C(=O)N23)cc(OC)c1OC | 11.6 µM [rising, partial curve, poor fit] | 
4 | COc1ccc(CN(Cc2ccc(C(=O)O)cc2)C(=S)Nc2cc(C)cc(C)c2)cc1OC | 5.01 µM [falling, partial curve, poor fit] | 
5 | C[C@@H](OC(=O)c1[nH]cnc1C(=O)NCc1ccc(CNC(=O)OC(C)(C)C)cc1)c1ccccc1 |  | 3.26 µM [falling, partial curve, poor fit]
6 | CC(C)OC(=O)c1c(N)n(CCCN2CCOCC2)c2nc3ccccc3nc12 | 25.9 µM [falling, partial curve] | 
7 | O=C/C(=C\Nc1ccc(Br)cc1)c1nc2ccccc2o1 | 3.55 µM [rising, partial curve, poor fit] | 
8 | CNc1c(N)c(=O)oc2ccccc12 | 22.4 µM [falling, partial curve] | 
9 | CC(C)Oc1cc2oc(=O)c3c(c2cc1Cl)CCC3 | 18.4 µM [rising, single point] | 
10 | Cc1nnc2sc(SCc3ccccc3Cl)nn2c1=O | 11.2 µM [falling, partial curve] | 
11 | O=C(O)c1c2c(nc3ccccc13)/C(=C/c1ccccc1[N+](=O)[O-])CCC2 | 12.6 µM [rising, partial curve] | 
12 | COc1ccccc1N1CCN(C(=O)C2CCN(S(=O)(=O)c3ccc(Cl)cc3)CC2)CC1 | 11.2 µM [falling, partial curve, poor fit] | 
13 | Cc1ccc(/C(N)=N/OC(=O)c2ccco2)cc1 | 0.651 µM [rising, full curve] | 
14 | O=C(Nc1ccc(N2CCCCCC2)cc1)c1ccccc1Cl | 10 µM [falling, partial curve] | 
15 | CCc1ccccc1NC(=O)CCC(=O)c1cccs1 | 31.6 µM [falling, single point] | 
16 | Cc1csc(N(C)C(=O)CSc2nnc(COc3cccc4ccccc34)o2)n1 | 0.651 µM [rising, full curve, poor fit] | 
17 | Cc1cccn2c(=O)c(/C=C(\C#N)C(N)=O)c(N3CCN(c4cccc(Cl)c4)CC3)nc12 | 14.1 µM [falling, single point] | 
18 | COc1ccc(N=Cc2ccc[nH]2)cc1 | 6.51 µM [falling, single point] | 
19 | Cc1cc(N2C(=O)C(O)=C(C(=O)c3cccs3)C2c2ccc(F)cc2)no1 (centres undefined) | 1.78 µM [falling, full curve] | 
20 | COc1ccc2c(c1)N(C(=O)CSc1n[nH]c(C)n1)C(C)(C)C=C2C | 29.1 µM [rising, single point] | 
21 | Cc1ccc(-c2ccc(C#N)c(=O)n2CC(=O)N(C)C)cc1 | 0.282 µM [rising, full curve, poor fit] | 

Among those listed so far, these contain a thiophene ring, fused or not.
Row | Structure (SMILES) | AC50 [1] | AC50 [2]
15 | CCc1ccccc1NC(=O)CCC(=O)c1cccs1 | 31.6 µM [falling, single point] | 
19 | Cc1cc(N2C(=O)C(O)=C(C(=O)c3cccs3)C2c2ccc(F)cc2)no1 (centres undefined) | 1.78 µM [falling, full curve] | 

Next part.

Row | Structure (SMILES) | AC50 [1] | AC50 [2]
22 | COc1ccc(OC)c(C2C(C(N)=O)=C(C)Nc3nc(-c4cccc(Cl)c4)nn32)c1 (centres undefined) | 10 µM [falling, partial curve] | 
23 | CC(NC(=O)Nc1ccc(Cl)cc1)C1CCCO1 (centres undefined) | 2 µM [rising, partial curve, poor fit] | 
24 | COc1ccc(/C=C/c2nc3ccccc3n2Cc2ccc(OC)c(OC)c2)cc1 |  | 3.26 µM [falling, partial curve, poor fit]
25 | CCN(CC)C(=O)[C@H]1CC(CC(=O)NCC23CC4CC(CC(C4)C2)C3)C(=O)N2CCc3c([nH]c4ccc(OC)cc34)[C@]12C (some centres undefined) | 29.1 µM [falling, partial curve, poor fit] | 
26 | Oc1ccc(N=Cc2c(O)ccc3ccccc23)cc1 | 10 µM [falling, partial curve] | 
27 | COc1ccc(C(C(=O)NCCC(C)C)N(CCO)C(=O)c2snc(C(N)=O)c2N)cc1OC (centres undefined) | 10 µM [rising, partial curve] | 
28 | NC(=O)c1sc2nnc(-c3ccccc3)c(-c3ccccc3)c2c1N | 6.31 µM [rising, partial curve, poor fit] | 
29 | O=C(/C=C/c1ccccc1[N+](=O)[O-])OCC(=O)c1ccccc1 | 35.5 µM [falling, single point] | 
30 | O=C(N=Nc1ccc(NOC(=O)c2ccccc2Br)cc1)c1ccccc1O | 0.112 µM [falling, full curve] | 
31 | COc1cccc(-c2cc(C(=O)NCc3ccccc3)[nH]n2)c1 | 35.5 µM [falling, partial curve, poor fit] | 
32 | CCOc1ccc2oc(C(=O)Nc3ccc4c(c3)OCO4)c(C)c2c1 | 20 µM [falling, partial curve, poor fit] | 
33 | N#Cc1cccnc1Oc1ccccc1 | 0.1 µM [rising, full curve, poor fit] | 
34 | N/C(Cn1cncn1)=N\NC(=O)C(=O)Nc1ccccc1 | 14.1 µM [falling, single point] | 
35 | O=C(c1ccc2c(Cl)c3c(nc2c1)CCCC3)N1CCC(N2CCCCC2)CC1 | 29.1 µM [falling, single point] | 
36 | COc1ccccc1CN1C[C@@H]2C[C@@H](c3cccc(C)n3)N3CCC[C@@]23C1=O | 5.62 µM [rising, single point] | 
37 | CCC(CO)Oc1cc(NC(=O)c2ccccc2N)c2ncn(C(C)C)c2c1 (centres undefined) | 2.59 µM [rising, full curve, poor fit] | 
38 | Nc1c(C(=O)NC2CCCCC2)nsc1C(=O)OCC(=O)NC1CCCCC1 | 0.316 µM [falling, full curve, poor fit] | 
39 | COc1ccc(N2CCC(CNC(=O)Nc3ccc(Cl)cc3)C2)cc1 (centres undefined) | 3.16 µM [rising, partial curve, poor fit] | 
40 | CC(C)(C)OC(=O)CNC(=O)c1nc[nH]c1C(=O)N1CCN(C(=O)OC(C)(C)C)CC1 | 35.5 µM [falling, single point] | 
41 | COc1ccc(CC(=O)OCC(=O)Nc2ccc(Cl)cc2C)cc1 | 29.1 µM [rising, single point] | 
42 | CC(=O)c1cccc(N(CC(=O)Nc2ccc(F)cc2)S(C)(=O)=O)c1 | 4.61 µM [falling, full curve] | 

Molecules above containing bromine, in the order listed:
Row | Structure (SMILES) | AC50 [1] | AC50 [2]
7 | O=C/C(=C\Nc1ccc(Br)cc1)c1nc2ccccc2o1 | 3.55 µM [rising, partial curve, poor fit] | 
30 | O=C(N=Nc1ccc(NOC(=O)c2ccccc2Br)cc1)c1ccccc1O | 0.112 µM [falling, full curve] | 

Later entries:

Row | Structure (SMILES) | AC50 [1] | AC50 [2]
43 | OCC1(CC2CCCCO2)CCN(Cc2nc3ccccc3[nH]2)CC1 (centres undefined) | 12.6 µM [falling, partial curve, poor fit] | 
44 | O=C(N/N=C/C=C\c1ccccc1[N+](=O)[O-])c1cccs1 | 20.6 µM [falling, partial curve] | 
45 | Cc1cc(-c2cc(C(=O)NCc3ccccc3)on2)nc(S(C)(=O)=O)n1 | 17.8 µM [falling, single point] | 
46 | CCc1cccc2c(C(=O)COC(=O)c3ccc(O)cc3)c[nH]c12 | 6.51 µM [falling, partial curve] | 
47 | CCCCn1c(SCC(=O)c2ccc(OC)c(OC)c2)nc2cc(S(N)(=O)=O)ccc21 | 32.6 µM [falling, single point] | 
48 | Cc1ccc(CSc2nc3ccncc3[nH]2)cc1 | 29.1 µM [falling, single point] | 
49 | Cc1cc(=O)[nH]c(=S)n1-c1ccccc1 | 0.92 µM [falling, full curve] | 
50 | Cc1ccc(N2CC(C(=O)N3CCc4ccccc4C3)CC2=O)cc1 (centres undefined) | 29.1 µM [rising, single point] | 
51 | Cc1ccccc1C(=O)N1CCCN(C(=O)c2ccccc2C)CC1 | 3.16 µM [falling, single point] | 
52 | O=C(Nc1nc(-c2ccccc2)cs1)C1c2ccccc2Oc2ccccc21 | 7.31 µM [falling, partial curve] | 5.8 µM [rising, full curve, poor fit]
53 | C/C(=N\NC(=O)c1nnn(-c2nonc2N)c1CN1CCCCCC1)c1ccc(Br)cc1 | 35.5 µM [falling, partial curve, poor fit] | 
54 | Cc1ccc(C)c(N2CCN(C(=O)CCc3nc(-c4cccc(Cl)c4)no3)CC2)c1 | 16.4 µM [rising, single point] | 
55 | Cc1ccc(NC(=O)CCNC(=O)c2ccc(Br)cc2)cc1S(=O)(=O)N1CCCCCC1 | 32.6 µM [falling, single point] | 
56 | Cc1cc(NC(=O)CN2CCN(S(=O)(=O)c3ccc(Cl)cc3)CC2)no1 | 4.61 µM [falling, single point] | 
57 | Cc1[nH]c2ccccc2c1CC(=O)O | 16.4 µM [falling, single point] | 
58 | Cc1cccc(C)c1OCC(=O)N/N=C/C=C/c1ccco1 |  | 25.1 µM [falling, partial curve, poor fit]
59 | COc1ccc(-c2csc(NC(=S)NC(=O)/C=C/c3ccccc3)n2)cc1Br | 20 µM [rising, partial curve, poor fit] | 
60 | Cc1ccc(CN2CCN(Cc3ccc(-n4cccn4)cc3)CC2CCO)cc1 (centres undefined) | 11.2 µM [rising, partial curve, poor fit] | 
61 | CCCS(=O)(=O)N1CCN(C(=O)CCC2CCCC2)CC1 | 0.0651 µM [rising, full curve, poor fit] | 
62 | CC(=O)c1c(C)nc(-c2ccccc2)nc1N | 3.16 µM [falling, partial curve, poor fit] | 
63 | Nc1nc(C2C(=O)CCCC2=O)cs1 | 32.6 µM [rising, single point] | 
